This is an account of results in publication PMC8442339.

No constants are given. Whether binding was seen depends on the method and setting. In cells and extracts the contact can be indirect. Some entries that bind do so weakly or less than the wild type. Where a sequence is shown, tags or fusion partners need not be part of it.

This test deals with T1, Wild-type p53-induced gene 1 (Wig1), Flag-tagged (UniProt Q9HA38).
T1 sequence: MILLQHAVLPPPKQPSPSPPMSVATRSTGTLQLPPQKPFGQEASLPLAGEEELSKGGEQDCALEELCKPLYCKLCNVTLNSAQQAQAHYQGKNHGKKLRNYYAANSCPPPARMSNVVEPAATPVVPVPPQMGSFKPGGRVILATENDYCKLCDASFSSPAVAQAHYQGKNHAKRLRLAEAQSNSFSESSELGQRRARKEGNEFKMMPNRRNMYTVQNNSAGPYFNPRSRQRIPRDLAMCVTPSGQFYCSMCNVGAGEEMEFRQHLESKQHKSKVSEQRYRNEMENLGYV
Description: co-IP; lysate of transfected prostate cancer cells 48 h after transfection (Wig1-Flag group against control group); lysis buffer 20 mm/L Tris HCl, 1% np40, 150 mmol/L NaCl, 10% glycerol, protease inhibitors; cleared with Protein G Agarose beads; target protein antibodies added; SDS-PAGE and Western blot. (Immunoblotting shows a protein as a band on a membrane.)

B1: Eukaryotic translation initiation factor 5B (eIF5B) (protein, UniProt O60841 1-1220)
chain: MGKKQKNKSEDSTKDDIDLDALAAEIEGAGAAKEQEPQKSKGKKKKEKKKQDFDEDDILKELEELSLEAQGIKADRETVAVKPTENNEEEFTSKDKKKKGQKGKKQSFDDNDSEELEDKDSKSKKTAKPKVEMYSGSDDDDDFNKLPKKAKGKAQKSNKKWDGSEEDEDNSKKIKERSRINSSGESGDESDEFLQSRKGQKKNQKNKPGPNIESGNEDDDASFKIKTVAQKKAEKKERERKKRDEEKAKLRKLKEKEELETGKKDQSKQKESQRKFEEETVKSKVTVDTGVIPASEEKAETPTAAEDDNEGDKKKKDKKKKKGEKEEKEKEKKKGPSKATVKAMQEALAKLKEEEERQKREEEERIKRLEELEAKRKEEERLEQEKRERKKQKEKERKERLKKEGKLLTKSQREARARAEATLKLLQAQGVEVPSKDSLPKKRPIYEDKKRKKIPQQLESKEVSESMELCAAVEVMEQGVPEKEETPPPVEPEEEEDTEDAGLDDWEAMASDEETEKVEGNKVHIEVKENPEEEEEEEEEEEEDEESEEEEEEEGESEGSEGDEEDEKVSDEKDSGKTLDKKPSKEMSSDSEYDSDDDRTKEERAYDKAKRRIEKRRLEHSKNVNTEKLRAPIICVLGHVDTGKTKILDKLRHTHVQDGEAGGITQQIGATNVPLEAINEQTKMIKNFDRENVRIPGMLIIDTPGHESFSNLRNRGSSLCDIAILVVDIMHGLEPQTIESINLLKSKKCPFIVALNKIDRLYDWKKSPDSDVAATLKKQKKNTKDEFEERAKAIIVEFAQQGLNAALFYENKDPRTFVSLVPTSAHTGDGMGSLIYLLVELTQTMLSKRLAHCEELRAQVMEVKALPGMGTTIDVILINGRLKEGDTIIVPGVEGPIVTQIRGLLLPPPMKELRVKNQYEKHKEVEAAQGVKILGKDLEKTLAGLPLLVAYKEDEIPVLKDELIHELKQTLNAIKLEEKGVYVQASTLGSLEALLEFLKTSEVPYAGINIGPVHKKDVMKASVMLEHDPQYAVILAFDVRIERDAQEMADSLGVRIFSAEIIYHLFDAFTKYRQDYKKQKQEEFKHIAVFPCKIKILPQYIFNSRDPIVMGVTVEAGQVKQGTPMCVPSKNFVDIGIVTSIEINHKQVDVAKKGQEVCVKIEPIPGESPKMFGRHFEATDILVSKISRQSIDALKDWFRDEMQKSDWQLIVELKKVFEII
Regarding B1, the binding result is “binds”.
